No constants are given. Whether binding was seen depends on the method and setting. In cells and extracts the contact can be indirect. Some binding calls cover weakened binding; strength is not graded here. For part of these data: Where a sequence is shown, tags or fusion partners need not be part of it.
Assays:
Test in all cases: co-IP
[1] = molecular target: T1, CD3δ-CFP (UniProt P04235)
T1 sequence: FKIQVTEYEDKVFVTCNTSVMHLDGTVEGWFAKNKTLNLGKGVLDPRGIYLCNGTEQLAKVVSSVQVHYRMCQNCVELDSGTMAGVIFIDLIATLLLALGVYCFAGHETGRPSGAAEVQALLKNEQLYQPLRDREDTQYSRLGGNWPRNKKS

[2] = molecular target: T2, Cerulean-vIL-6 (HHV-8)
T2 sequence: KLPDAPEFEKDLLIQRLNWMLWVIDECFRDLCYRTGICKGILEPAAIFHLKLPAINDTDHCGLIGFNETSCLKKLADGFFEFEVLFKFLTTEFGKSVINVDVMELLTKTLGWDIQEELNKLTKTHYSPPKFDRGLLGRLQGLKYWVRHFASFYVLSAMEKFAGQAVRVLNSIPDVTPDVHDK

[3] = molecular target: T3, GFP-CNX (human) (UniProt P27824)
T3 sequence: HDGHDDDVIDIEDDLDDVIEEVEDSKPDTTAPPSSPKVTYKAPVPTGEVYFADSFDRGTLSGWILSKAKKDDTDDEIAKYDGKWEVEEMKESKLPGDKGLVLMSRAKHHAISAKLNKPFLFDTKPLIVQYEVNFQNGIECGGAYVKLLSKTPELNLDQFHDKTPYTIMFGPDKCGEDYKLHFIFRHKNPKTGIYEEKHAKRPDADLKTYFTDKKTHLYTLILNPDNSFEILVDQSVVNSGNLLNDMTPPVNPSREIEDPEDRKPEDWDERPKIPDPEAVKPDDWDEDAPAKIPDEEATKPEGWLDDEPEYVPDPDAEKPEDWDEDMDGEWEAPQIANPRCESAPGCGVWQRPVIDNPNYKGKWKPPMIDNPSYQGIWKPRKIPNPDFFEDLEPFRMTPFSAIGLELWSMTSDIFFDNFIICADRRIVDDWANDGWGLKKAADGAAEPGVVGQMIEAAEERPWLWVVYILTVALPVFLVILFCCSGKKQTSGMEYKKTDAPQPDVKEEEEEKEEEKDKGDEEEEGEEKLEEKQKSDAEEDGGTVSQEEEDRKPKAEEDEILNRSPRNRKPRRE

Measured: binding

B1: calnexin (CNX), endogenous in N2a cells (protein, UniProt P35564 21-591)
chain: HDGHDDDAIDIEDDLDDVIEEVEDSKSKSDASTPPSPKVTYKAPVPTGEVYFADSFDRGSLSGWILSKAKKDDTDDEIAKYDGKWEVDEMKETKLPGDKGLVLMSRAKHHAISAKLNKPFLFDTKPLIVQYEVNFQNGIECGGAYVKLLSKTAELSLDQFHDKTPYTIMFGPDKCGEDYKLHFIFRHKNPKTGVYEEKHAKRPDADLKTYFTDKKTHLYTLILNPDNSFEILVDQSVVNSGNLLNDMTPPVNPSREIEDPEDRKPEDWDERPKIADPDAVKPDDWDEDAPSKIPDEEATKPEGWLDDEPEYIPDPDAEKPEDWDEDMDGEWEAPQIANPKCESAPGCGVWQRPMIDNPNYKGKWKPPMIDNPNYQGIWKPRKIPNPDFFEDLEPFKMTPFSAIGLELWSMTSDIFFDNFIISGDRRVVDDWANDGWGLKKAADGAAEPGVVLQMLEAAEERPWLWVVYILTVALPVFLVILFCCSGKKQSNAMEYKKTDAPQPDVKDEEGKEEEKNKRDEEEEEEKLEEKQKSDAEEDGVTGSQDEEDSKPKAEEDEILNRSPRNRKPRRE
binds: [1] | [2] | [3]
